The entries are a selection whose mix differs from that of the whole data set.
compound: COC(=O)C#Cc1ccccc1 [methyl 3-phenylpropiolate]; assay: log2 ratio of iodoacetamide-alkyne labeling of the cysteine site, DMSO over compound (competition); higher = stronger covalent engagement of the cysteine by the compound, active = 1 or more; conditions: 500 µM; treatment time 1 h; system: HEK293T cell lysate
How it was run: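 Electrophile (500 µM) or vehicle was added to HEK293T lysate (2 mg/mL) for 1 h at ambient temperature before iodoacetamide alkyne labelling (1 h) and click coupling to sCIP-TMT reagents. After pooling, overnight trypsin digestion at 37 °C, streptavidin enrichment and acid elution, peptides were measured by Orbitrap Eclipse LC-MS/MS with FAIMS and quantified in FragPipe. Each cysteine's log2 competition ratio compares mean control-channel with mean compound-channel reporter intensity, control over compound. Data came from duplicate channels across three replicates, excluding cysteines quantified in only one replicate.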

By UniProt entry, the sequences of proteins in these tests, tags left out. Where a name states a change or a piece, a line headed by the entry shows the natural chain unless it says otherwise.
UniProt P05386, whole entry, looked up: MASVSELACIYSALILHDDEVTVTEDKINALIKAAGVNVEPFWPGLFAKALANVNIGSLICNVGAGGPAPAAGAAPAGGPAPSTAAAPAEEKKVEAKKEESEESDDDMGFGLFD
UniProt O94992, whole entry, looked up: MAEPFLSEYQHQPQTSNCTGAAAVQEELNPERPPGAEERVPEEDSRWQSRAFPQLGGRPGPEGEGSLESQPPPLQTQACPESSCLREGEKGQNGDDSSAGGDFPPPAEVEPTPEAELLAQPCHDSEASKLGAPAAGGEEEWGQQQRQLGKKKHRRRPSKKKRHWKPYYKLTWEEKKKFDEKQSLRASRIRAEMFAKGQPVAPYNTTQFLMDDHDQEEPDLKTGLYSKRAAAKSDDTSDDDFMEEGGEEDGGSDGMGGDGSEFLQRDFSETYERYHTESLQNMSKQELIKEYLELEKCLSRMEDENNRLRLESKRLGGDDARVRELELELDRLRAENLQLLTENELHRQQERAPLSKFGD
UniProt P04181: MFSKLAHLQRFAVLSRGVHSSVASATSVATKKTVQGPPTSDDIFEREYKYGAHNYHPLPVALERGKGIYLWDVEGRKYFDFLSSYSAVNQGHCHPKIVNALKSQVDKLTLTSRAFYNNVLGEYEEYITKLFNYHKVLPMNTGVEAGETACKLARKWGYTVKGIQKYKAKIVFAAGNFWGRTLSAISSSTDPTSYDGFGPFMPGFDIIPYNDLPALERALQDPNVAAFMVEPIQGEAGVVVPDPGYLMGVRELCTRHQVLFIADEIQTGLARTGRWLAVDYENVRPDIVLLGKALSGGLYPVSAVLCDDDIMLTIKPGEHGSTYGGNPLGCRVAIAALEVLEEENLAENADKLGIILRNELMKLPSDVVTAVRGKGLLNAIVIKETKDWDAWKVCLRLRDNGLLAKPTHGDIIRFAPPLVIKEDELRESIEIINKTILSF
UniProt O95340: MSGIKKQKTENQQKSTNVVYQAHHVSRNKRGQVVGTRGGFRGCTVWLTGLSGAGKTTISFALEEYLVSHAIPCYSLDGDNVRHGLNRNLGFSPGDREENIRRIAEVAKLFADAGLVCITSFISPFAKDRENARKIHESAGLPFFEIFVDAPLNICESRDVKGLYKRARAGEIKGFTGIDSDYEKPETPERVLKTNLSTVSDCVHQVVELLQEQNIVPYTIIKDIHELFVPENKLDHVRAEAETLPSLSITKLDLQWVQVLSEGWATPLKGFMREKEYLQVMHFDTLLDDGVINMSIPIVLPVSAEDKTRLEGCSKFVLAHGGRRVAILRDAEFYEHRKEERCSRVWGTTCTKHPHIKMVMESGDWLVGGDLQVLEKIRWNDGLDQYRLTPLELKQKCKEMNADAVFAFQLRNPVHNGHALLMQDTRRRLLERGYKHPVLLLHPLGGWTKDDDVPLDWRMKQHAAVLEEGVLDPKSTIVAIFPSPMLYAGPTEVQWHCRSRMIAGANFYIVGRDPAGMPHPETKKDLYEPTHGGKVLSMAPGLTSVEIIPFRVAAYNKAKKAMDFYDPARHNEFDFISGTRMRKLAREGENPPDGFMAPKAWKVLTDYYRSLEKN
UniProt P04406: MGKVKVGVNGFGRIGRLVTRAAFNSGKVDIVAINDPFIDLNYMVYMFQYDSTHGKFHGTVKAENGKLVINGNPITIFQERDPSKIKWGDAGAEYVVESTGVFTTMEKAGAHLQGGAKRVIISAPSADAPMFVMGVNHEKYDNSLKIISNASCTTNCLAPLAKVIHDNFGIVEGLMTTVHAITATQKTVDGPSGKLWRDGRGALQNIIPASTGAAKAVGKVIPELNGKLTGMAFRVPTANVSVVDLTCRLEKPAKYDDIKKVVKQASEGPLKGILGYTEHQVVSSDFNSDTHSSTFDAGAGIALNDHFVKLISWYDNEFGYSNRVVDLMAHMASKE
UniProt P04637, whole entry, looked up: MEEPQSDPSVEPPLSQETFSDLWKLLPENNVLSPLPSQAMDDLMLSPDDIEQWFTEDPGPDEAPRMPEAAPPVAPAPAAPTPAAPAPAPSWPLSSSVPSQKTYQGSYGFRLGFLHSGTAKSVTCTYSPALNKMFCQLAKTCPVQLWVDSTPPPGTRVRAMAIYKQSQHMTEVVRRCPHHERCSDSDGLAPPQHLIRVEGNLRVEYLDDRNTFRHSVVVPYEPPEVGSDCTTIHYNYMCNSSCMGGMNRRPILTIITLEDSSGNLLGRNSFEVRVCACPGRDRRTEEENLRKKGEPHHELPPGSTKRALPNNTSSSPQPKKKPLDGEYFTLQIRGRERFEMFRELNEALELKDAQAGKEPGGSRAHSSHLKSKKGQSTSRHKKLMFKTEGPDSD
UniProt P07099: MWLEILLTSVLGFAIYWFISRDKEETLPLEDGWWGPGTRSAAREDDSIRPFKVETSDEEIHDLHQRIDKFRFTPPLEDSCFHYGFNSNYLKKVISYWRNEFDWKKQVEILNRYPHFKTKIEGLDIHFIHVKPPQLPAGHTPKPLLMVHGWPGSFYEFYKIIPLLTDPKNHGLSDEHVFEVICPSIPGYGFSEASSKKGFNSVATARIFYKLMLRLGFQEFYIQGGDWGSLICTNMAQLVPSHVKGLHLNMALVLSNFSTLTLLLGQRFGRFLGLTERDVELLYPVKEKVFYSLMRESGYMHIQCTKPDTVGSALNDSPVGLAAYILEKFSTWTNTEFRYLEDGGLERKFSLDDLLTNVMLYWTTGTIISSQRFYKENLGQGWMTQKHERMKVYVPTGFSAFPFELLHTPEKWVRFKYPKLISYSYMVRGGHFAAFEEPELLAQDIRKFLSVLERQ
UniProt O95071: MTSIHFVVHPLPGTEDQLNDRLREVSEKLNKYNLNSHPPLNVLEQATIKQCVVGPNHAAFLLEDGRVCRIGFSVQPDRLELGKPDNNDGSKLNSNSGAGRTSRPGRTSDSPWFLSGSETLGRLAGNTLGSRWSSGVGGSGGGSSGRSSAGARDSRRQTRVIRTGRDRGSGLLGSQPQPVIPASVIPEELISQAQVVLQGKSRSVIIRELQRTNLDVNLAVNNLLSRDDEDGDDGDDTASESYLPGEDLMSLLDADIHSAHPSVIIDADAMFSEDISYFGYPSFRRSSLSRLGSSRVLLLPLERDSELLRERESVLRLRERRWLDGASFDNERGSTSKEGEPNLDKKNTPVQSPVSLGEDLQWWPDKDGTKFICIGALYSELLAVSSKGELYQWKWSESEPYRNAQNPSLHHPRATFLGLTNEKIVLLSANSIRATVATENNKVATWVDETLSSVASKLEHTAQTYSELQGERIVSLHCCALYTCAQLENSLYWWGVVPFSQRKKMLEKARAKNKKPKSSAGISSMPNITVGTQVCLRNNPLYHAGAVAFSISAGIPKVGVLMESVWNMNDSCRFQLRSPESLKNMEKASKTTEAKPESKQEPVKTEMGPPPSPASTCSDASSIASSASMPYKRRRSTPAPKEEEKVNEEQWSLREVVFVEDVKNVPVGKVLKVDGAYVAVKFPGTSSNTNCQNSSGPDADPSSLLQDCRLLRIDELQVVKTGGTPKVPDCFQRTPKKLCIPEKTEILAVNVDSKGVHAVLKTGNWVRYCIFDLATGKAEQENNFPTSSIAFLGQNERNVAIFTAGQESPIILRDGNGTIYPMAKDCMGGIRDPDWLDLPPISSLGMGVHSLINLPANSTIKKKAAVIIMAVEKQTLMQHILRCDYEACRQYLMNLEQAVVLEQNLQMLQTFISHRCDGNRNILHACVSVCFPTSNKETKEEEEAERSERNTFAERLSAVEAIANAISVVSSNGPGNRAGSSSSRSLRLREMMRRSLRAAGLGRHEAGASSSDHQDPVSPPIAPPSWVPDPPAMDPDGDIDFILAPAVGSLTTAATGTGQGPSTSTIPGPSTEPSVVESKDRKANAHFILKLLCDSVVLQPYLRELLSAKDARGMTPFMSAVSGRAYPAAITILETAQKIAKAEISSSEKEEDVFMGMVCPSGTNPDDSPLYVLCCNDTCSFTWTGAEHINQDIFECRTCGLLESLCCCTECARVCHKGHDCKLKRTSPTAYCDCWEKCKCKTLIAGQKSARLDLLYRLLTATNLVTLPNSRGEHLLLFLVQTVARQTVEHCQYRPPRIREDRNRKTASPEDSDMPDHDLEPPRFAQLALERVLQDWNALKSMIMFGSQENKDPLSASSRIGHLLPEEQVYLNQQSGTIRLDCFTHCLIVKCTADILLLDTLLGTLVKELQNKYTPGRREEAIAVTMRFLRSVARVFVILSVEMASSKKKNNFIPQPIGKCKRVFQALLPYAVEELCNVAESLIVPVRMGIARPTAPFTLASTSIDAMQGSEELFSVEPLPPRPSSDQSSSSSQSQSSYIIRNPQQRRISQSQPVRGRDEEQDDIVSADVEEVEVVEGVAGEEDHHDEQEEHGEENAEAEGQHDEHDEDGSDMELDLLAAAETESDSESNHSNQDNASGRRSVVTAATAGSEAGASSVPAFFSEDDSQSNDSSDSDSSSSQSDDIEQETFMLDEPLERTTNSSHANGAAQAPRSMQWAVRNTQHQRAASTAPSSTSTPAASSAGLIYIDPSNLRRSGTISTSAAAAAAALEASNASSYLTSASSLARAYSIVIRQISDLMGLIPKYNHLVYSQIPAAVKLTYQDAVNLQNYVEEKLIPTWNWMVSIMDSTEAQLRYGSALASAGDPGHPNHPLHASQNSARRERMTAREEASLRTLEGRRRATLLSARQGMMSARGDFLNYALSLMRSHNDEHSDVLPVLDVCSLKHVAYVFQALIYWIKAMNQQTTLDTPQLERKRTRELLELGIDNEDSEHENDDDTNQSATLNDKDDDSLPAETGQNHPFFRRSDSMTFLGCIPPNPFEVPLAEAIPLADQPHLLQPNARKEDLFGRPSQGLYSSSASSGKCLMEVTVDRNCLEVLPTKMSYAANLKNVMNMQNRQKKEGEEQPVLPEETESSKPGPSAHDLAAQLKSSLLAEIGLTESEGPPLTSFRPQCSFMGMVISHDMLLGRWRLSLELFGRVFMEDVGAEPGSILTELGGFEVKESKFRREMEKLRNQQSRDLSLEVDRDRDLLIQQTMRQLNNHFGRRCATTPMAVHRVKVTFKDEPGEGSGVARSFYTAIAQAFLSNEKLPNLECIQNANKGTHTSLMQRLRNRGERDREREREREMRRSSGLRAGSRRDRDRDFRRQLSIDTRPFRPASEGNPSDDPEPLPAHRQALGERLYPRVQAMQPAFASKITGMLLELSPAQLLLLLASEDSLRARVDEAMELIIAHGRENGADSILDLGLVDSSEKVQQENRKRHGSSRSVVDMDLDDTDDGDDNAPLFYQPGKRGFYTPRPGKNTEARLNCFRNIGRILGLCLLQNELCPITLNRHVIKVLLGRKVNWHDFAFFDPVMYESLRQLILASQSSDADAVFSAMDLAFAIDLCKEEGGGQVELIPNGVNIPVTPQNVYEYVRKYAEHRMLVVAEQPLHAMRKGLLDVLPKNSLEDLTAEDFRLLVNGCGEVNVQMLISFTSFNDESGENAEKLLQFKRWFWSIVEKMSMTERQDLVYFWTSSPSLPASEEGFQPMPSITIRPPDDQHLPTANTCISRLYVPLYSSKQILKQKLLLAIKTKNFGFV
UniProt O95544: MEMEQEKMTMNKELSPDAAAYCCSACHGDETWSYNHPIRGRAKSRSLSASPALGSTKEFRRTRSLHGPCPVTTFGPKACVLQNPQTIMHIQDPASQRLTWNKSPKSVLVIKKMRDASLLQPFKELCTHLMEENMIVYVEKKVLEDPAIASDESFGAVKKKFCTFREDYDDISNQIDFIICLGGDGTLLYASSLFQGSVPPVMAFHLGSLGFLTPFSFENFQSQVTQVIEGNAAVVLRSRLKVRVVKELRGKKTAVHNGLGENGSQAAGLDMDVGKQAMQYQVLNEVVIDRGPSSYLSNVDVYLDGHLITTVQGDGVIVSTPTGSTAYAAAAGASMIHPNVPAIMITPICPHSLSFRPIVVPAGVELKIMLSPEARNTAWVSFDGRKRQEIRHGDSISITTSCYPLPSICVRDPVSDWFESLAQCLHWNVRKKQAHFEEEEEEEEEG
UniProt P04843: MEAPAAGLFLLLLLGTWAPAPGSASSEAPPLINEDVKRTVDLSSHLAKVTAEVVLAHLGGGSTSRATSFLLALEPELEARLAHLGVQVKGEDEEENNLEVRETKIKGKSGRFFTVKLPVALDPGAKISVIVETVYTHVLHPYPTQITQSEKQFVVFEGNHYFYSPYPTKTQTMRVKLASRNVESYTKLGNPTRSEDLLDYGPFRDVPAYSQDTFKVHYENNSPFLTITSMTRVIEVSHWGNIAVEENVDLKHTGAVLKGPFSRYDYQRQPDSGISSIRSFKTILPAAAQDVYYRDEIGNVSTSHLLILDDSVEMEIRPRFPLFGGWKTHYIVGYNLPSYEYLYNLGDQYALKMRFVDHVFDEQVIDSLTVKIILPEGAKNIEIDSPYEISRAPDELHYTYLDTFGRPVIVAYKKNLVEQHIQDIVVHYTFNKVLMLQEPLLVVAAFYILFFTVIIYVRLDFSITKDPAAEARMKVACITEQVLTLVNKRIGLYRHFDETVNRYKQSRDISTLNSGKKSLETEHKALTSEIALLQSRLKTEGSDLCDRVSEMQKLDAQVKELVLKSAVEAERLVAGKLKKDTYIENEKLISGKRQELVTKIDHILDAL

log2 ratio of iodoacetamide-alkyne labeling, inactive:
HSPA4L C540 (UniProt O95757) 0.885, PFN1 C71 (UniProt P07737) -0.0177, SBF1 C553 (UniProt O95248) 0.997, RPLP1 C61 (UniProt P05386) 0.227, PRPF6 C698 (UniProt O94906) 0.0824, UniProt O94901_C63 0.378, LDHA C163 (UniProt P00338) 0.164, HEXIM1 C122 (UniProt O94992) -0.0215, OAT C253 (UniProt P04181) 0.0787, PAPSS2 C155 (UniProt O95340) -0.0435, GAPDH C247 (UniProt P04406) -0.518, PCNT C974 (UniProt O95613) -0.0788, EPRS C1453 (UniProt P07814) -0.00903, ATP1A1 C428 (UniProt P05023) 0.234, TP53 C277 (UniProt P04637) 0.269, HEXIM1 C18 (UniProt O94992) 0.398, UniProt P00491_C31 0.101, PGLS C237 (UniProt O95336) 0.156, EPHX1 C80 (UniProt P07099) 0.109, SOGA1 C267 (UniProt O94964) -0.405, UniProt O95104_C506 0.288, MAP4K4 C883 (UniProt O95819) 0.438, UniProt O95071_C2267 0.736, UROD C308 (UniProt P06132) 0.28, ENO1 C119 (UniProt P06733) -0.134, PFN1 C128 (UniProt P07737) -0.0166, NADK C79 (UniProt O95544) 0.129, UBE4B C494 (UniProt O95155) 0.16, PGK1 C50 (UniProt P00558) 0.0293, ACSL3 C85 (UniProt O95573) -0.29, UniProt P04439_C227 0.255, UniProt O95551_C273 -0.192, ENO1 C389 (UniProt P06733) 0.125, LMNA C570 (UniProt P02545) 0.553, RPN1 C477 (UniProt P04843) 0.519, UniProt O94763_C443 0.659, POLR1A C613 (UniProt O95602) 0.472

From the supplement of paper PMC11006884
